Source: PubChem BioAssay AID1259308 (NCATS, 2017)
Assay: 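Knock-downs that increase output of a recombinant reporter protein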 (primary screen). Cell system: human HEK293 embryonic kidney cells stably expressing firefly luciferase (HEK-CMV-Luc2-Hygro). Knock-down reagent: single siRNA against human genes, 0.8 pmol siRNA per well. Timing: 72 h. Read-out: 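Luciferase light (ONE-Glo) measured on one replicate plate set and viability (CellTiter-Glo) on the other, scaled to a negative control siRNA, with robust z-scores and luciferase per cell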. Direction: total luciferase, z-score and total luciferase, % of control: higher = more reporter protein produced; luciferase per cell, z-score: higher = more reporter output per viable cell; viable cells, % of control: higher = more viable cells. Call rule: 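Active when the median/MAD z-score for overall luciferase is greater than 3; a gene was taken forward for validation with new siRNAs if at least two of its three siRNAs passed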. Calls: active = raised luciferase; inactive = no rise.
The whole screen tested about 59,000 reagents; shown is a random part of them. Of all reagents, about 1,510 (2.6%) were called active. 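Calls use total luciferase alone and ignore viability, so some active siRNAs may act by altering cell number.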 Entries without a mark were called inactive. Reagent sequences are not shown.

gene | PubChem SID | total luciferase, z-score | total luciferase, % of control | luciferase per cell, z-score | viable cells, % of control
MUL1 | SID160748958 | -0.421 | 73.5 | 0.16 | 78.8
MUL1 | SID160748959 | -1.32 | 55.6 | -1.19 | 84.8
MUL1 | SID160748961 | -0.206 | 77.8 | -0.628 | 103
OR4K5 | SID160748813 | 0.291 | 87.7 | 1.44 | 67
OR4K5 | SID160748814 | -0.453 | 72.9 | -0.644 | 96.5
OR4K5 | SID160748815 | 1.79 | 118 | 0.861 | 105
COMMD2 | SID160740115 | 0.182 | 85.5 | 0.541 | 82.8
COMMD2 | SID160740116 | 1.06 | 103 | 1.37 | 80.3
COMMD2 | SID160740118 | -0.0142 | 81.6 | -0.629 | 108
ENO1 | SID160760400 | -1.27 | 56.6 | -1.4 | 91.4
ENO1 | SID160760410 | 2.48 | 131 | 1.98 | 87.1
ENO1 | SID160760418 | -0.0344 | 81.2 | -0.416 | 101
TIMM29 | SID160753747 | 0.00128 | 81.9 | 0.36 | 83.2
TIMM29 | SID160753748 | 0.0132 | 82.2 | -0.00988 | 92
TIMM29 | SID160753749 | -0.552 | 70.9 | -0.348 | 86.8
DOK1 | SID160755790 | 1.03 | 102 | 0.78 | 93.2
DOK1 | SID160755801 | 0.408 | 90 | 0.0263 | 99.9
DOK1 | SID160755812 | 1.11 | 104 | 1.12 | 86.6
PIK3CD | SID160714344 | 1.22 | 106 | 0.492 | 104
PIK3CD | SID160714346 | 1.01 | 102 | 0.402 | 102
PIK3CD | SID160731418 | 0.226 | 86.4 | -0.679 | 115
HAUS2 | SID160743041 | -0.675 | 68.5 | -0.752 | 93.3
HAUS2 | SID160743042 | -0.392 | 74.1 | -0.245 | 88.3
HAUS2 | SID160743043 | 0.365 | 89.2 | 0.673 | 83.4
SELENOT | SID160733519 | 0.0515 | 82.9 | -0.874 | 117
SELENOT | SID160741254 | -0.0781 | 80.3 | 0.262 | 83.8
SELENOT | SID160741255 | 1.07 | 103 | 0.852 | 92.2
HINT1P1 | SID160773833 | -0.656 | 68.8 | -0.939 | 98.5
HINT1P1 | SID160773834 | -0.137 | 79.2 | -0.223 | 93.8
HINT1P1 | SID160773835 | 0.4 | 89.8 | 0.472 | 88.7
LINC01559 | SID160732930 | -0.0319 | 81.3 | -0.871 | 114
LINC01559 | SID160762906 | 0.385 | 89.5 | -0.015 | 100
LINC01559 | SID160762907 | 0.577 | 93.4 | -0.0193 | 105
PCDHB11 | SID160744817 | -0.27 | 76.5 | -0.364 | 94.1
PCDHB11 | SID160744818 | -0.0905 | 80.1 | 0.0527 | 88.3
PCDHB11 | SID160744819 | -0.0468 | 81 | -0.0176 | 90.9
CABYR | SID160732864 | 0.649 | 94.8 | 1.11 | 79.2
CABYR | SID160737841 | -0.805 | 65.9 | -0.904 | 93.4
CABYR | SID160737842 | 0.648 | 94.8 | 0.929 | 82.9
ENOX2 | SID160728579 | 2 | 122 | 2.31 | 74.1
ENOX2 | SID160728580 | -0.409 | 73.7 | -0.355 | 90.5
ENOX2 | SID160728581 | 0.834 | 98.5 | 0.561 | 94.9
CCDC88A | SID160744134 | 0.802 | 97.8 | 0.607 | 93.2
CCDC88A | SID160744135 | -0.138 | 79.1 | -0.534 | 102
CCDC88A | SID160744136 | 2.5 | 132 | 1.28 | 105
CCDC88A | SID160772430 | -0.114 | 79.6 | 0.179 | 84.9
CCDC88A | SID160772431 | -0.0787 | 80.3 | 1.06 | 67.9
CCDC88A | SID160772432 | 0.313 | 88.1 | -0.444 | 111
TXNL4A | SID160729486 | -0.493 | 72.1 | -0.147 | 83.7
TXNL4A | SID160729488 | 0.0488 | 82.9 | 0.101 | 90.2
TXNL4A | SID160730478 | -0.0179 | 81.5 | -0.0707 | 92.8
MEF2D | SID160777120 | 1.69 | 115 | 1.78 | 80.7
MEF2D | SID160777121 | -0.573 | 70.5 | -0.605 | 92.4
MEF2D | SID160777122 | -0.476 | 72.4 | 0.172 | 77.3
SCRN3 | SID160749051 | -0.181 | 78.3 | 0.204 | 82.9
SCRN3 | SID160749052 | -0.0282 | 81.3 | -0.318 | 98.8
SCRN3 | SID160749054 | 1.16 | 105 | 1.29 | 83.5

Laid out differently: 9 of the entries above
CCDC88A [SID160772430]
- total luciferase, z-score: -0.114
- total luciferase, % of control: 79.6
- luciferase per cell, z-score: 0.179
- viable cells, % of control: 84.9

CCDC88A [SID160772431]
- total luciferase, z-score: -0.0787
- total luciferase, % of control: 80.3
- luciferase per cell, z-score: 1.06
- viable cells, % of control: 67.9

CCDC88A [SID160772432]
- total luciferase, z-score: 0.313
- total luciferase, % of control: 88.1
- luciferase per cell, z-score: -0.444
- viable cells, % of control: 111

TXNL4A [SID160729486]
- total luciferase, z-score: -0.493
- total luciferase, % of control: 72.1
- luciferase per cell, z-score: -0.147
- viable cells, % of control: 83.7

TXNL4A [SID160729488]
- total luciferase, z-score: 0.0488
- total luciferase, % of control: 82.9
- luciferase per cell, z-score: 0.101
- viable cells, % of control: 90.2

TXNL4A [SID160730478]
- total luciferase, z-score: -0.0179
- total luciferase, % of control: 81.5
- luciferase per cell, z-score: -0.0707
- viable cells, % of control: 92.8

MEF2D [SID160777120]
- total luciferase, z-score: 1.69
- total luciferase, % of control: 115
- luciferase per cell, z-score: 1.78
- viable cells, % of control: 80.7

MEF2D [SID160777121]
- total luciferase, z-score: -0.573
- total luciferase, % of control: 70.5
- luciferase per cell, z-score: -0.605
- viable cells, % of control: 92.4

MEF2D [SID160777122]
- total luciferase, z-score: -0.476
- total luciferase, % of control: 72.4
- luciferase per cell, z-score: 0.172
- viable cells, % of control: 77.3
